The values below come from PMC9735679, “Identification and Evolution of a Natural Tetr Protein Based on Molecular Docking and Development of a Fluorescence Polari-Zation Assay for Multi-Detection of 10 Tetracyclines in Milk” (Foods, 2022).

The nature of the data set: Recovery from standard fortified blank milk samples by FPA. The following applies: n = 6.

Regarding `CN(C)[C@@H]1C(O)=C(C(=O)NCNCCCC[C@H](N)C(=O)O)C(=O)[C@@]2(O)C(O)=C3C(=O)c4c(O)cccc4[C@@](C)(O)[C@H]3C[C@@H]12` [LMC, Lymecycline], where the note is “added 10 ng/g”, the “Inter-Assay Recovery” value amounted to 90.2% and the “Intra-Assay Recovery” value turned out to be 82.4%. For the same compound, where the note is “added 100 ng/g”, the “Inter-Assay Recovery” value amounted to 95.4% and the “Intra-Assay Recovery” value is recorded as 82.5%.

With `CN(C)[C@@H]1C(O)=C(C(N)=O)C(=O)[C@@]2(O)C(O)=C3C(=O)c4c(O)cccc4[C@@](C)(O)[C@H]3C[C@@H]12` [TC, tetracycline], for the setting “added 10 ng/g”, the “Inter-Assay Recovery” value was 81.2% and the “Intra-Assay Recovery” value was 88.1%. Moreover, for the setting “added 100 ng/g”, the “Inter-Assay Recovery” value worked out at 93.5% and the “Intra-Assay Recovery” value came to 87.2%.
